Measurements: the supplement of paper PMC7646827
Single values are uncertain, as repeats are few or missing.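 All cells are established human bladder cancer lines, one of them grown from a patient-derived xenograft. Viability was read by a luminescent ATP assay as percent inhibition versus vehicle over a seven-point dilution series; the paper calls scores above 59 very active, 30–59 active, 21–29 semi-active, 9–20 low active and below 9 inactive.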

Columns and labels:
Experiment in all cases: drug sensitivity score DSS3 (score 0-100); higher = more sensitive; extreme values may be limits of the assay
Settings in all cases: culture: 3D, ultra-low attachment; treatment time: 5 days
[1] = tested on: UM-UC-18
[2] = tested on: UM-UC-15
[3] = tested on: UM-UC-17
[4] = tested on: BC8149
[5] = tested on: 5637
[6] = tested on: T-24
[7] = tested on: TCCSUP
[8] = tested on: UM-UC-3
[9] = tested on: UM-UC-12
[10] = tested on: UM-UC-1
[11] = tested on: J82
[12] = tested on: UM-UC-9
[13] = tested on: UM-UC-5
[14] = tested on: UM-UC-6
[15] = tested on: SW780
[16] = tested on: SCaBER
[17] = tested on: UM-UC-14

Row | Compound | drug sensitivity score DSS3 [1] | drug sensitivity score DSS3 [2] | drug sensitivity score DSS3 [3] | drug sensitivity score DSS3 [4] | drug sensitivity score DSS3 [5] | drug sensitivity score DSS3 [6] | drug sensitivity score DSS3 [7] | drug sensitivity score DSS3 [8] | drug sensitivity score DSS3 [9] | drug sensitivity score DSS3 [10] | drug sensitivity score DSS3 [11] | drug sensitivity score DSS3 [12] | drug sensitivity score DSS3 [13] | drug sensitivity score DSS3 [14] | drug sensitivity score DSS3 [15] | drug sensitivity score DSS3 [16] | drug sensitivity score DSS3 [17]
1 | Nc1nccc(Oc2ccc(NC(=O)c3c[nH]cc(-c4ccc(F)cc4)c3=O)cc2F)c1Cl (max dose 10000 nM) | 1.31 | 24.4 | 1.36 | 1.53 | 0 | 0.854 | 4.48 | 2.67 | 0 | 0 | 0 | 0 | 0 | 0.916 | 0 | 0 | –
2 | CC(C)n1c(=O)n(C)c2cnc3cc(F)c(-c4ccc(OCCCN5CCCCC5)nc4)cc3c21 [AZD1390] (max dose 10000 nM) | 0 | 0 | 0 | 0 | 0 | 0 | 0 | 0 | 0 | 0 | 0 | 0 | 0 | 0 | – | 0 | 3.35
3 | Cc1cc(C)c(CNC(=O)c2cc(-c3ccc(CN4CCOCC4)cc3)cc3c2cnn3C2CCCC2)c(=O)[nH]1 (max dose 10000 nM) | 0 | 0 | 0 | 0 | 0 | 0 | 0.847 | 0.485 | 0 | 0 | 0 | 0 | 0 | – | 0 | 0.0545 | 0
4 | Cc1cc(N2C[C@@H](C)N[C@@H](C)C2)ncc1-c1ccc(-c2nc3c(ccn3C)c(=O)[nH]2)cc1 [AZ6102] (max dose 10000 nM) | 0 | 0 | 0 | 0 | 0.17 | 9.84 | 0.675 | 0 | 0.161 | 0.29 | 0 | 0.194 | 0 | – | 0 | 0 | 0
5 | Nc1ccc(-c2ccc3ncc4ccc(=O)n(-c5cccc(C(F)(F)F)c5)c4c3c2)cn1 [Torin 2] (max dose 10000 nM) | 52.1 | 0 | 29.7 | 59.5 | 43.9 | 1.62 | 51.8 | 38.2 | 34.9 | 57.2 | 34.3 | – | 52 | 22.6 | 7.78 | 48.1 | 27.6
6 | CO[C@H]1C(=O)[C@]2(C)[C@@H](OC)C[C@H]3OC[C@@]3(OC(C)=O)[C@H]2[C@H](OC(=O)c2ccccc2)[C@]2(O)C[C@H](OC(=O)[C@H](O)[C@@H](NC(=O)OC(C)(C)C)c3ccccc3)C(C)=C1C2(C)C [Cabazitaxel] (max dose 10000 nM) | 60.2 | 0 | 67.8 | 41.7 | 66.7 | 0 | 60.4 | 26.1 | 50.5 | 43.5 | 26.2 | – | – | 54.1 | 60.5 | 35.7 | 61.2
7 | CC(NC(=O)c1ccccc1/N=C/c1c(O)ccc2ccccc12)c1ccccc1 (centres undefined) [Sirtinol] (max dose 10000 nM) | 0 | 3.66 | – | 0 | 0 | 0 | 0 | 0 | 0 | 0 | 0 | 0 | 0 | 0.252 | 0 | 0 | 0
8 | Cc1nc(C#Cc2ccnc(Cl)c2)c(C)n1-c1ccc(OC(F)(F)F)cc1 (max dose 10000 nM) | 0.257 | 9.05 | 0 | 0 | 0 | 0 | 1.22 | 0 | 0 | 0 | 0 | 0 | 0 | – | 0 | 0 | 0
9 | C=CC(=O)Nc1ccc2ncnc(Nc3ccc(OCc4cccc(F)c4)c(Cl)c3)c2c1 [AST-1306] (max dose 10000 nM) | 27.8 | 0 | – | 25.3 | 23.7 | 23.2 | 19.5 | 0 | 20.8 | 0 | 0 | – | 0.198 | 2.92 | – | 27.1 | –
10 | Nc1cccc2c1CN(C1CCC(=O)NC1=O)C2=O (centres undefined) [Lenalidomide, Lenalidomide (CC-5013)] (max dose 10000 nM) | 4.07 | 0 | 0 | 0.684 | 5.68 | 2.53 | 14.9 | 1.15 | 4.36 | 3.1 | 0.87 | 0.813 | – | 5.75 | 0.0239 | 2.78 | 9.77
11 | c1ccc(NCc2ccc(CNc3ccccn3)cc2)nc1 [WZ811] (max dose 10000 nM) | 0 | 0 | 0 | 0 | 0 | 0 | 0 | 0 | 0 | 0 | 0 | 0 | 0 | – | 0 | 0 | 0
12 | Cc1ccc(C(=O)N(CCCN)[C@@H](c2oc3cc(Cl)ccc3c(=O)c2Cc2ccccc2)C(C)C)cc1 (max dose 10000 nM) | 30.1 | 0.408 | 59.9 | 0 | 52.5 | 0 | 59.1 | 30.8 | 34.6 | 45.4 | 0 | 11.2 | 1.25 | 33.2 | – | 0 | 59.5
13 | O=C(Cc1ccc(-c2ccc(OCCN3CCOCC3)cc2)cn1)NCc1ccccc1 [KX2-391] (max dose 10000 nM) | 0 | 0 | 63.8 | 28.3 | 64.7 | 2.41 | 68.6 | 20.6 | 27.4 | 41.8 | 0.517 | – | 13.8 | 48.1 | 23.5 | 18.7 | 63.1

Entries of single compounds as entered above. Values in the order: drug sensitivity score DSS3 [1]	drug sensitivity score DSS3 [2]	drug sensitivity score DSS3 [3]	drug sensitivity score DSS3 [4]	drug sensitivity score DSS3 [5]	drug sensitivity score DSS3 [6]	drug sensitivity score DSS3 [7]	drug sensitivity score DSS3 [8]	drug sensitivity score DSS3 [9]	drug sensitivity score DSS3 [10]	drug sensitivity score DSS3 [11]	drug sensitivity score DSS3 [12]	drug sensitivity score DSS3 [13]	drug sensitivity score DSS3 [14]	drug sensitivity score DSS3 [15]	drug sensitivity score DSS3 [16]	drug sensitivity score DSS3 [17]
CC(C)n1c(=O)n(C)c2cnc3cc(F)c(-c4ccc(OCCCN5CCCCC5)nc4)cc3c21 [AZD1390] (max dose 10000 nM) as listed: 0	0	0	0	0	0	0	0	0	0	0	0	0	0	–	0	3.35
Cc1ccc(C(=O)N(CCCN)[C@@H](c2oc3cc(Cl)ccc3c(=O)c2Cc2ccccc2)C(C)C)cc1 (max dose 10000 nM) as listed: 30.1	0.408	59.9	0	52.5	0	59.1	30.8	34.6	45.4	0	11.2	1.25	33.2	–	0	59.5
